29 compounds from the supplement of paper PMC4604168 (melanoma cell lines) can be followed below.

Each structure is given as a SMILES string. The list shows a part of the results. Repeats are few or missing, and single values can be far off.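 Imaging used 1,536-well plates; nuclei positive for cleaved PARP by antibody were divided by total DNA-stained nuclei to yield the apoptosis fraction. Doses for screening kept most cells viable, and cell lines differ markedly in resting and induced cleaved-PARP levels.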

The experiment relates to WM3526. As to the kind of experiment: cleaved PARP positive nuclei fraction relative to DMSO control; melanoma cells; higher = more apoptosis. The note with it: library dose: low library concentration; 72 h.
In the case of `N#CC[C@H](C1CCCC1)n1cc(-c2ncnc3[nH]ccc23)cn1` [ruxolitinib] + Nc1cccc2c1CN(C1CCC(=O)NC1=O)C2=O [lenalidomide] (first compound 1 µM, partner dose 1 µM), the “cleaved PARP positive nuclei fraction” value is 36.9%. To `N#CC[C@H](C1CCCC1)n1cc(-c2ncnc3[nH]ccc23)cn1` [ruxolitinib] + COCC[n+]1c2c(n(Cc3cnccn3)c1C)C(=O)c1ccccc1C2=O [YM155] (first compound 1 µM, partner dose 0.0004 µM) belongs 260%; to `CCCCCCCCCCCCCCCCCCOP(=O)([O-])OC1CC[N+](C)(C)CC1` [Perifosine] + O=C(O)[C@@H]1[O][Sb](=[O])([O][Sb]2(=[O])[O][C@H]([C@H](O)CO)[C@H](O)[C@H](C(=O)O)[O]2)[O][C@H]([C@H](O)CO)[C@@H]1O [stibogluconate] (first compound 0.4 µM, partner dose 2 µM), 183%; to `O=c1[nH]nc(Sc2ncc([N+](=O)[O-])s2)n1-c1ccc2c(c1)OCCO2` + Nc1ncn([C@H]2C[C@H](O)[C@@H](CO)O2)c(=O)n1 [decitabine] (first compound 0.2 µM, partner dose 0.1 µM), 73.7%. The value for `O=C(Nc1cc(C(F)(F)F)cc(C(F)(F)F)c1)c1cc(Cl)ccc1O` + CC(C)C[C@H](NC(=O)[C@H](Cc1ccccc1)NC(=O)c1cnccn1)B(O)O [Bortezomib] (first compound 0.016 µM, partner dose 0.001 µM) was 39.3%. The value for `N#CC[C@H](C1CCCC1)n1cc(-c2ncnc3[nH]ccc23)cn1` [ruxolitinib] + C[C@]1(O)C[C@@H](c2nc(-c3ccc4ccc(-c5ccccc5)nc4c3)c3c(N)nccn32)C1 [OSI906] (first compound 1 µM, partner dose 0.4 µM) was 37%. Take `Cc1cc(Nc2cc(N3CCN(C)CC3)nc(Sc3ccc(NC(=O)C4CC4)cc3)n2)n[nH]1` [Tozasertib] + CNC(=O)c1cc(Oc2ccc(NC(=O)Nc3ccc(Cl)c(C(F)(F)F)c3)cc2)ccn1 [sorafenib] (first compound 0.006 µM, partner dose 0.4 µM): the “cleaved PARP positive nuclei fraction” value was determined as 153%. The value for `Cc1ccc(Nc2nccc(N(C)c3ccc4c(C)n(C)nc4c3)n2)cc1S(N)(=O)=O` [Pazopanib] + CN1CCN(c2ccc3nc(-c4c(N)c5c(F)cccc5[nH]c4=O)[nH]c3c2)CC1 [Dovitinib] (first compound 0.4 µM, partner dose 0.1 µM) was 45.3%. As for `Cc1cn(-c2cc(NC(=O)c3ccc(C)c(Nc4nccc(-c5cccnc5)n4)c3)cc(C(F)(F)F)c2)cn1` [nilotinib] + Cn1c(=O)n(-c2ccc(C(C)(C)C#N)cc2)c2c3cc(-c4cnc5ccccc5c4)ccc3ncc21 [NVP-BEZ235] (first compound 0.2 µM, partner dose 0.004 µM), the “cleaved PARP positive nuclei fraction” value turned out to be 156%. To `O=c1[nH]nc(Sc2ncc([N+](=O)[O-])s2)n1-c1ccc2c(c1)OCCO2` + C=CCNC1=C2C[C@@H](C)C[C@H](OC)[C@H](O)[C@@H](C)/C=C(\C)[C@H](OC(N)=O)[C@@H](OC)/C=C\C=C(/C)C(=O)NC(=CC1=O)C2=O [Tanespimycin] (first compound 0.2 µM, partner dose 0.002 µM) belongs 29%; to `CCCCCCCCCCCCCCCCCCOP(=O)([O-])OC1CC[N+](C)(C)CC1` [Perifosine] + C#Cc1cccc(Nc2ncnc3cc(OCCOC)c(OCCOC)cc23)c1 [erlotinib] (first compound 0.4 µM, partner dose 0.8 µM), 54.8%. For the compound `COc1cc([C@@H]2c3cc4c(cc3[C@@H](O[C@@H]3O[C@@H]5CO[C@@H](C)O[C@H]5[C@H](O)[C@H]3O)[C@H]3COC(=O)[C@H]23)OCO4)cc(OC)c1O` [etoposide] + C[C@]1(O)C[C@@H](c2nc(-c3ccc4ccc(-c5ccccc5)nc4c3)c3c(N)nccn32)C1 [OSI906] (first compound 0.02 µM, partner dose 0.4 µM), the “cleaved PARP positive nuclei fraction” value was 43.2%. The value for `CCCCCCCCCCCCCCCCCCOP(=O)([O-])OC1CC[N+](C)(C)CC1` [Perifosine] + C[C@@H](N)c1ccc(C(=O)Nc2ccnc3[nH]ccc23)cc1 [RKI983] (first compound 0.4 µM, partner dose 0.4 µM) was 87.3%. The value for `CCCCCCCCCCCCCCCCCCOP(=O)([O-])OC1CC[N+](C)(C)CC1` [Perifosine] + CCCS(=O)(=O)Nc1ccc(F)c(C(=O)c2c[nH]c3ncc(Cl)cc23)c1F [PLX4720] (first compound 0.4 µM, partner dose 0.08 µM) was 88.6%; that for `O=C(/C=C/c1cccnc1)NCCCCC1CCN(C(=O)c2ccccc2)CC1` + Cc1cc(Nc2cc(N3CCN(C)CC3)nc(/C=C/c3ccccc3)n2)n[nH]1 [ENMD2076] (first compound 0.01 µM, partner dose 0.04 µM) was 152%; that for `O=C(/C=C/c1cccnc1)NCCCCC1CCN(C(=O)c2ccccc2)CC1` + Clc1ccc(Nc2nnc(Cc3ccncc3)c3ccccc23)cc1 [vatalanib] (first compound 0.01 µM, partner dose 2 µM) was 76.8%. Turning to `Cc1cc(Nc2cc(N3CCN(C)CC3)nc(Sc3ccc(NC(=O)C4CC4)cc3)n2)n[nH]1` [Tozasertib] + CC1(C)CCC(c2ccc(Cl)cc2)=C(CN2CCN(c3ccc(C(=O)NS(=O)(=O)c4ccc(N[C@H](CCN5CCOCC5)CSc5ccccc5)c(S(=O)(=O)C(F)(F)F)c4)cc3)CC2)C1 [ABT263] (first compound 0.006 µM, partner dose 0.4 µM), the “cleaved PARP positive nuclei fraction” value was 21.1%. The value for `CCCCCCCCCCCCCCCCCCOP(=O)([O-])OC1CC[N+](C)(C)CC1` [Perifosine] + NC(=O)c1ccc(N(C(N)=O)c2c(F)cccc2F)nc1-c1ccc(F)cc1F [VX702] (first compound 0.4 µM, partner dose 0.4 µM) was 184%; that for `CCCCCCCCCCCCCCCCCCOP(=O)([O-])OC1CC[N+](C)(C)CC1` [Perifosine] + CC(=O)c1c(C)c2cnc(Nc3ccc(N4CCNCC4)cn3)nc2n(C2CCCC2)c1=O [palbociclib] (first compound 0.4 µM, partner dose 0.04 µM) was 182%; that for `Cc1ccc(Nc2nccc(N(C)c3ccc4c(C)n(C)nc4c3)n2)cc1S(N)(=O)=O` [Pazopanib] + O=C(O)c1ccc2c(c1)nc(Nc1cccc(Cl)c1)c1ccncc12 [CX4945] (first compound 0.4 µM, partner dose 0.4 µM) was 38.9%. For `Cc1cn(-c2cc(NC(=O)c3ccc(C)c(Nc4nccc(-c5cccnc5)n4)c3)cc(C(F)(F)F)c2)cn1` [nilotinib] + C=C(c1ccc(C(=O)O)cc1)c1cc2c(cc1C)C(C)(C)CCC2(C)C [Bexarotene] (first compound 0.2 µM, partner dose 2 µM), the “cleaved PARP positive nuclei fraction” value was 58.7%. The value for `Cc1cc(Nc2cc(N3CCN(C)CC3)nc(Sc3ccc(NC(=O)C4CC4)cc3)n2)n[nH]1` [Tozasertib] + O=C(O)[C@@H]1[O][Sb](=[O])([O][Sb]2(=[O])[O][C@H]([C@H](O)CO)[C@H](O)[C@H](C(=O)O)[O]2)[O][C@H]([C@H](O)CO)[C@@H]1O [stibogluconate] (first compound 0.006 µM, partner dose 2 µM) was 131%; that for `O=C(/C=C/c1cccnc1)NCCCCC1CCN(C(=O)c2ccccc2)CC1` + Nc1ccn([C@@H]2O[C@H](CO)[C@@H](O)C2(F)F)c(=O)n1 [gemcitabine] (first compound 0.01 µM, partner dose 0.0004 µM) was 19.2%; that for `O=C(/C=C/c1cccnc1)NCCCCC1CCN(C(=O)c2ccccc2)CC1` + O=C(O)c1ccc2c(c1)nc(Nc1cccc(Cl)c1)c1ccncc12 [CX4945] (first compound 0.01 µM, partner dose 0.4 µM) was 98%. In the case of `O=C(/C=C/c1cccnc1)NCCCCC1CCN(C(=O)c2ccccc2)CC1` + Cc1ccc(Nc2nccc(N(C)c3ccc4c(C)n(C)nc4c3)n2)cc1S(N)(=O)=O [Pazopanib] (first compound 0.01 µM, partner dose 0.4 µM), the “cleaved PARP positive nuclei fraction” value stood at 73.6%. To `Cc1cc(Nc2cc(N3CCN(C)CC3)nc(Sc3ccc(NC(=O)C4CC4)cc3)n2)n[nH]1` [Tozasertib] + CC(C)C[C@H](NC(=O)[C@H](Cc1ccccc1)NC(=O)c1cnccn1)B(O)O [Bortezomib] (first compound 0.006 µM, partner dose 0.001 µM) belongs 189%; to `Cc1ccc(Nc2nccc(N(C)c3ccc4c(C)n(C)nc4c3)n2)cc1S(N)(=O)=O` [Pazopanib] + Cn1c(=O)n(-c2ccc(C(C)(C)C#N)cc2)c2c3cc(-c4cnc5ccccc5c4)ccc3ncc21 [NVP-BEZ235] (first compound 0.4 µM, partner dose 0.004 µM), 94.4%. The value for `Cc1cc(Nc2cc(N3CCN(C)CC3)nc(Sc3ccc(NC(=O)C4CC4)cc3)n2)n[nH]1` [Tozasertib] + CS(=O)(=O)CCNCc1ccc(-c2ccc3ncnc(Nc4ccc(OCc5cccc(F)c5)c(Cl)c4)c3c2)o1 [lapatinib] (first compound 0.006 µM, partner dose 0.8 µM) was 52.8%. The value for `Cc1ccc(Nc2nccc(N(C)c3ccc4c(C)n(C)nc4c3)n2)cc1S(N)(=O)=O` [Pazopanib] + Nc1nc(F)nc2c1ncn2[C@@H]1O[C@H](CO)[C@@H](O)[C@@H]1O [fludarabine] (first compound 0.4 µM, partner dose 0.2 µM) was 105%.
